Reference: US20200030355A1, “COMBINATION THERAPY FOR TREATING CANCER” (Epizyme, Inc., priority 2014, published 2020)

Tests used:
[1] = tested on: MOLM-13 (MLL-AF9); assay: Combination proliferation study with Compound A2 (ATP/CellTiter-Glo, Chou-Talalay combination index); format: cell-based, human; details: 7 Day Cotreatment Model, Table 4
Experimental: (§1) The acute myelogenous leukemia cell lines MV4-11 (MLL-AF4) and MOLM-13 (MLL-AF9) were obtained from American Type Culture Collection (ATCC; Rockville, Md.) and Deutsche Sammlung von Mikroorganismen and Zellkulturen (DSMZ; Braunschweig, Germany) respectively.
(§2) Studies were performed using MLL-rearranged cell lines in vitro to evaluate the anti-proliferative effect of a combination of two agents together on cell growth. Initial proliferation studies were performed to determine the IC50 of a given compound in each cell line. The cell counts were measured by ATP quantitation using the Promega Cell Titer Glo kit and luminescence values corresponded to the amount of ATP in a given well.
(§3) Compounds were evaluated for synergy in the co-treatment phase by testing the compounds in a concentration range which was bracketed around their IC50 values. […]
(§4) The drug combination analysis was performed utilizing the Chou-Talalay method Synergy was determined using the software package Calcusyn by Biosoft. The combination index (CI) is a quantitative term used to describe the level of synergy or antagonism in a given test system. […]
(§5) Graphs representing values of combination index (CI) versus Fractional effect (Fa) known as Fa-CI plots were generated and synergy was evaluated. […]
Cell viability was measured via ATP content using CellTiter-Glo® (Promega). […]

[2] = tested on: MV4-11 (MLL-AF4); assay: as above; format: cell-based, human; details: 7 Day Cotreatment Model, Table 4
Experimental: as §1, §2, §3, §4, §5
Viability was determined using CellTiter-Glo® (Promega). […]

SMILES: O=C1OCCN1/N=C/c1ccc([N+](=O)[O-])o1 [Furazolidone]
- Combination with Compound A2, MOLM-13 (MLL-AF9) [1]: Combination Benefit
- Combination with Compound A2, MV4-11 (MLL-AF4) [2]: Synergy (Drug synergy was statistically defined by CI values less than 1)
